Assay results reported in the supplement of paper PMC10849652.
Some of the results follow.

The chains behind the UniProt entries cited, without tags or fusion partners. Where a name states a change or a piece, a line headed by the entry shows the natural chain unless it says otherwise.
UniProt Q13867: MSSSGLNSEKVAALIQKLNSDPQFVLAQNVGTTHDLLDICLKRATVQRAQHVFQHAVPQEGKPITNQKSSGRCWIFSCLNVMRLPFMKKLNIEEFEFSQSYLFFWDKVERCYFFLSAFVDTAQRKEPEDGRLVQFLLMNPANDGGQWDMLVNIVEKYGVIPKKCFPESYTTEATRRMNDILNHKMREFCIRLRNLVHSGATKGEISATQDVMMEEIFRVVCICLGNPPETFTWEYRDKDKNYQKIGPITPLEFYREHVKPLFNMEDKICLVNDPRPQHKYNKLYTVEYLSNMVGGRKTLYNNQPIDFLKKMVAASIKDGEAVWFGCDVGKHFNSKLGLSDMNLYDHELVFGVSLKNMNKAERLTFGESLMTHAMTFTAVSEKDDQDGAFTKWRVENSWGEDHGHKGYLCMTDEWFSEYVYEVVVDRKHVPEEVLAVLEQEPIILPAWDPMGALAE
UniProt P12694: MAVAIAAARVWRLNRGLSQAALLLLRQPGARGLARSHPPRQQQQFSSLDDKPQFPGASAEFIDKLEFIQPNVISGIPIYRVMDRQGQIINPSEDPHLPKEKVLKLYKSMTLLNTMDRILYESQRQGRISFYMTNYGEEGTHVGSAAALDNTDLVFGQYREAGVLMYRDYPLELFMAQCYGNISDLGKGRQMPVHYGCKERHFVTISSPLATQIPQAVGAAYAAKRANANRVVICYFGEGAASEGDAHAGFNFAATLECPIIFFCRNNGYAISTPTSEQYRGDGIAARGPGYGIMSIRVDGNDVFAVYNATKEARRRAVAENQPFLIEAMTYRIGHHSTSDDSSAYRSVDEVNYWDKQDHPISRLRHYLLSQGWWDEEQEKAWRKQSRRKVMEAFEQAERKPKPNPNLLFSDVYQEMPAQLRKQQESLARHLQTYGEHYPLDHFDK
UniProt Q9NXR7, whole entry, looked up: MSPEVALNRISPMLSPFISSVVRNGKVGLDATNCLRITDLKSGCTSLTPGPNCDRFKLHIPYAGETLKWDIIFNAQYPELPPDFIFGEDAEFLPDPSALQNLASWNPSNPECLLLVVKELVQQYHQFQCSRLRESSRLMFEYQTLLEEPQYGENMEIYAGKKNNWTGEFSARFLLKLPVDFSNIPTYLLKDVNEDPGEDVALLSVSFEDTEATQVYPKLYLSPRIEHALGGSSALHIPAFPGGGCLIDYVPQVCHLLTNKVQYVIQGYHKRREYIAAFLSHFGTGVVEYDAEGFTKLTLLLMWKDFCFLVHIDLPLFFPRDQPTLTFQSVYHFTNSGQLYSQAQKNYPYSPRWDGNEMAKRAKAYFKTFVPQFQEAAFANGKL
UniProt O94766: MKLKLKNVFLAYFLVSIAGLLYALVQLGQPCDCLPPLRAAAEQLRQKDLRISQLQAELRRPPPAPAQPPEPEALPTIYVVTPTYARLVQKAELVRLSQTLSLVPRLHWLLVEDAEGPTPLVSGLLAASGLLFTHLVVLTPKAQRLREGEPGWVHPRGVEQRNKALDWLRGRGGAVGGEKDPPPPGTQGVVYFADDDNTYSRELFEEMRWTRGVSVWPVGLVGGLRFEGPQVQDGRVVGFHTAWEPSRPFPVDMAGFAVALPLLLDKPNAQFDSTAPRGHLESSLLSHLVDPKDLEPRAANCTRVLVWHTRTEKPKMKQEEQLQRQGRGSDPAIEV
UniProt O95999: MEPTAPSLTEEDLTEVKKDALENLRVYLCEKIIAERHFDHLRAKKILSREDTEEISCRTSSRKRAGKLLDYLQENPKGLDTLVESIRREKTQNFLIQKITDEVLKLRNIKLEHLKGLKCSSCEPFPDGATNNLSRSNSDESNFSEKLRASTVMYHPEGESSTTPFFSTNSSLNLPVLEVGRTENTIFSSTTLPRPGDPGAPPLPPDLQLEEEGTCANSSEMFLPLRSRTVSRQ
UniProt O95817, whole entry, looked up: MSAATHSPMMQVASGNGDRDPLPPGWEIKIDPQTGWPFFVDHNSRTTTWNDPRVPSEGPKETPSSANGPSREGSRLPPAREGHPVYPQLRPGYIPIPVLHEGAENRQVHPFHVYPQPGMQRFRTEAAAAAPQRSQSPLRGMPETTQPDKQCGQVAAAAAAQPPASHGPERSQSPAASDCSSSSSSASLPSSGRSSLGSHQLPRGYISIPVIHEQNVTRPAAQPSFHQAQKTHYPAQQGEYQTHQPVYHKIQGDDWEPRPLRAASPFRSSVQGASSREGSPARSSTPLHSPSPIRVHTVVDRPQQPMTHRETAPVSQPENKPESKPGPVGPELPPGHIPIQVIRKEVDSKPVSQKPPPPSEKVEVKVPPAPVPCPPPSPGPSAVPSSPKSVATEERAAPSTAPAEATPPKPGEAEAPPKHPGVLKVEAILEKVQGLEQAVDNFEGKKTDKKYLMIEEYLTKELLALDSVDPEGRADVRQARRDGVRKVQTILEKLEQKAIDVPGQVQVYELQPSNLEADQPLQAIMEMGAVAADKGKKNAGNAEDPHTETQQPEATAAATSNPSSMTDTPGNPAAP
UniProt Q8TD16, whole entry, looked up: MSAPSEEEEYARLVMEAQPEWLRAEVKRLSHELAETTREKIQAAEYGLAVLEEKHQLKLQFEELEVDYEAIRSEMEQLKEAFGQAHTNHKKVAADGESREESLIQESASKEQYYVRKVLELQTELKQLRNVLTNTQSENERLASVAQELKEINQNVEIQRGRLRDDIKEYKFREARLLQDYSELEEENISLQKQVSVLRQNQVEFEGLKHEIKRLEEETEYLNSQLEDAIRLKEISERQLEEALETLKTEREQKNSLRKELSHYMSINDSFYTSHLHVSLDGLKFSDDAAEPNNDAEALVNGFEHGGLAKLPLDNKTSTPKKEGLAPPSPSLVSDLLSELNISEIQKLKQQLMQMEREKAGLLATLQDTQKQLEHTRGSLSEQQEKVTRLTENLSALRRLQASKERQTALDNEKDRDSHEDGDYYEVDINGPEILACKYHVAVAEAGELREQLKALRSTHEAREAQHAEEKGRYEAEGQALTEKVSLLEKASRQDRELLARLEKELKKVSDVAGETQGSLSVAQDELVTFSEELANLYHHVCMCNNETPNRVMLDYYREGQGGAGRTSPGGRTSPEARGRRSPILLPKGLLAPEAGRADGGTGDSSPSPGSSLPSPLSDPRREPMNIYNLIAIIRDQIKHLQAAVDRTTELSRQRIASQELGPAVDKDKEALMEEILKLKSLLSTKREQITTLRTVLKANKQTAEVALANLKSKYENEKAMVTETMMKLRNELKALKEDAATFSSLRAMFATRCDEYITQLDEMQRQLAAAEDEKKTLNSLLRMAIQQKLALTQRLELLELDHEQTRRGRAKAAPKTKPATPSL
UniProt Q92843: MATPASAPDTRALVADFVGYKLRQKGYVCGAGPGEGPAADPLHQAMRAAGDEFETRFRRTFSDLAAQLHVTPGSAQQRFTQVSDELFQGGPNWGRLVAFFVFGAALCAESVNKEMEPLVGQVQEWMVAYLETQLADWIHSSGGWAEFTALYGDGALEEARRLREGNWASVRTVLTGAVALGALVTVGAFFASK
UniProt P46736, whole entry, looked up: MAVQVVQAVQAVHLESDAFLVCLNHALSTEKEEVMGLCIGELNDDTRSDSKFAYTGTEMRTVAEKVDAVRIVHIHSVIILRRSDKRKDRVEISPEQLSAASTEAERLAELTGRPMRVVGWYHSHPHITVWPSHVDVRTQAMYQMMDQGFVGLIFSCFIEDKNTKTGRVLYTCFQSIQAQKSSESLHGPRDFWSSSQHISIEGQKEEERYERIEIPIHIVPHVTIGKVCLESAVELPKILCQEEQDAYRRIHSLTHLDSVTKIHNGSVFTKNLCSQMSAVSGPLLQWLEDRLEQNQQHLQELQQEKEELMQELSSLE
UniProt Q9UQB8: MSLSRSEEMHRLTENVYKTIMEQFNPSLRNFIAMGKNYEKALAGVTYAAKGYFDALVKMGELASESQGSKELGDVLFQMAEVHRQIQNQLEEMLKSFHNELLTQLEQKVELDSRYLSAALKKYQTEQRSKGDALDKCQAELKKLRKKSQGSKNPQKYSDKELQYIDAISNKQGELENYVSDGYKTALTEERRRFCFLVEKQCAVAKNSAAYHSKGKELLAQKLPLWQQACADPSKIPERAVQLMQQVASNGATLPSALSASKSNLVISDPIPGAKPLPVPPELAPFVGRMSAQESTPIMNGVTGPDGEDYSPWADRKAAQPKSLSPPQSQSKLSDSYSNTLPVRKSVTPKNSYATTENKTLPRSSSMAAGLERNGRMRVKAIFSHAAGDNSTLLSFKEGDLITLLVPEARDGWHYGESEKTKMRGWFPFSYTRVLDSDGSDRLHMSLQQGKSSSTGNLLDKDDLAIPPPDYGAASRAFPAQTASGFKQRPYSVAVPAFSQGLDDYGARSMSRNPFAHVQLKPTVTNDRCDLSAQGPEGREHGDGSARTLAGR
UniProt Q07817, whole entry, looked up: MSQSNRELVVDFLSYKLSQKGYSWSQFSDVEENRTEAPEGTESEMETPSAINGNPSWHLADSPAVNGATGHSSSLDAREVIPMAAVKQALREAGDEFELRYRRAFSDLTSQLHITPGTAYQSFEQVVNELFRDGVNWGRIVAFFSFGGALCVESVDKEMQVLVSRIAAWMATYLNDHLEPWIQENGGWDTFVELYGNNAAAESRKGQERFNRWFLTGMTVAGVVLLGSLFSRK
UniProt Q53S33: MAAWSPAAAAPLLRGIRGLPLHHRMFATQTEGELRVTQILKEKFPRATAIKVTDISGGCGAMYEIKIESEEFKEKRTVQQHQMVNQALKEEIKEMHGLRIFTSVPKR
UniProt P55957: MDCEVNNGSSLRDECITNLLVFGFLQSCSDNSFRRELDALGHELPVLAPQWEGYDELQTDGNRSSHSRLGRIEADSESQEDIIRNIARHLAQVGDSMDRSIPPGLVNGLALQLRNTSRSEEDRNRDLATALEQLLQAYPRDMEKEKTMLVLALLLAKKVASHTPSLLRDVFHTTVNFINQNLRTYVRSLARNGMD
UniProt Q9BUT1: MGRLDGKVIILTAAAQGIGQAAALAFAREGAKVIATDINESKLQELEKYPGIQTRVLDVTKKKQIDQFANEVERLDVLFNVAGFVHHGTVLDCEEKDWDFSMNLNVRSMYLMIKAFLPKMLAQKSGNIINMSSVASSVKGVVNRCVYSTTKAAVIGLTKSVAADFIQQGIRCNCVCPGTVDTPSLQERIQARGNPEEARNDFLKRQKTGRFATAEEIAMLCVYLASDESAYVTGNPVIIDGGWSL
UniProt P15056, whole entry, looked up: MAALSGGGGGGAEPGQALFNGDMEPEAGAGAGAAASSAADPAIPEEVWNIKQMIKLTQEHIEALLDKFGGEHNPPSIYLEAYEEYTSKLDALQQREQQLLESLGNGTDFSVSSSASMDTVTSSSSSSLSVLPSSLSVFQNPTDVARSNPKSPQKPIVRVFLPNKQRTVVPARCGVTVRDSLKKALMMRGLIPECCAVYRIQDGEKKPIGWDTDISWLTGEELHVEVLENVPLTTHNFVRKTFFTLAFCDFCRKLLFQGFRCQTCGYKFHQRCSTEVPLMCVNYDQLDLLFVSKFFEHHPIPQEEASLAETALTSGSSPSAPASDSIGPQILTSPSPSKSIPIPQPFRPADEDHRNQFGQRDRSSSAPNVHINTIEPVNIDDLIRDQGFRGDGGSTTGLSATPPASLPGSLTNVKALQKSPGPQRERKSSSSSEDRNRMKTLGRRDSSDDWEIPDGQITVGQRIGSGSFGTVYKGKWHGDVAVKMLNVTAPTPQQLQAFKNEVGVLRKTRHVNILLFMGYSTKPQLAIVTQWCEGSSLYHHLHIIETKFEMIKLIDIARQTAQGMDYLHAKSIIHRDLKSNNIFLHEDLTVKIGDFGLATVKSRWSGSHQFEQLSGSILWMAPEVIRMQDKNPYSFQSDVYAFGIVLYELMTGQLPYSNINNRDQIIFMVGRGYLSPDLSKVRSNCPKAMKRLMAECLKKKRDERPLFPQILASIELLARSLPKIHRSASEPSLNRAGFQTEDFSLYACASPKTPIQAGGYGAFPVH
UniProt Q00973: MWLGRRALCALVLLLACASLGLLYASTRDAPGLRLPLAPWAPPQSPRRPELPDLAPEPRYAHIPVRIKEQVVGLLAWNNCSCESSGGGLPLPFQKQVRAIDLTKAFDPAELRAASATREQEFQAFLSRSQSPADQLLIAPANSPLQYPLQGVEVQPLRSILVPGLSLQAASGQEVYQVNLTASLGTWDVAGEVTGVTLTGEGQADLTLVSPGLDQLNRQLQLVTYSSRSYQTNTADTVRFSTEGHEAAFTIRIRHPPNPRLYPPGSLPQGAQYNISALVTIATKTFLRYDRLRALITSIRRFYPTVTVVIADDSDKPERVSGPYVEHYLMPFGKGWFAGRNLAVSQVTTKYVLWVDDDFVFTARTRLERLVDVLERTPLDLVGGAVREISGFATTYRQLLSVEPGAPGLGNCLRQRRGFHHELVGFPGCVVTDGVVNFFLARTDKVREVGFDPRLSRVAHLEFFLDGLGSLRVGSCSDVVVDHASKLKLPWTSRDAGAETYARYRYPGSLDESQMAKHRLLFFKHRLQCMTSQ
UniProt O75531: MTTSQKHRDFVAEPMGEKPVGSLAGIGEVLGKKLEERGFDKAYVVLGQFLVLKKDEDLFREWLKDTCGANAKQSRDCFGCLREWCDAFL

Experiments:
Assay in all cases: log2 fold change, soluble protein after heating vs DMSO (PISA); higher = thermal stabilisation; K562 cells, 10 uM, 30 min; active = over 0.2 and 3.5 SD of the protein, either way, in both replicates (recomputed)
[1] = compound: COC1=CC=C(C=C1)CN2C=CC3=C2C=C(C=C3)C(=O)NO
Summary of the method: (§1)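 Values are thermal stability changes relative to control samples and are taken from duplicates. They are stated as log2 fold changes. Before quantification by TMTpro 16plex LC-MS/MS with equalised channel sums, K562 cells at 2×10^6 cells/mL were treated with 10 μM compound for 30 min, heated in aliquots for 3 min across 48°C-58°C, pooled, extracted in PBS with 0.5% NP-40 at 4°C, and centrifuged at 21,000xg for 90 min to give the soluble supernatant.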

[2] = compound: CON(C)C(=O)N1N=C(c2cc(F)ccc2F)S[C@@]1(CCCN)c1ccccc1 [filanesib]
Summary of the method: as §1

[3] = compound: CO[C@H]1C[C@@H]2CC[C@@H](C)[C@@](O)(O2)C(=O)C(=O)N2CCCC[C@H]2C(=O)O[C@H]([C@H](C)C[C@@H]2CC[C@H](n3cnnn3)[C@H](OC)C2)CC(=O)[C@H](C)/C=C(\C)[C@@H](O)[C@@H](OC)C(=O)[C@H](C)C[C@H](C)/C=C/C=C/C=C/1C [zotarolimus]
Summary of the method: as §1

[4] = compound: COc1cc(C(=O)O)ccc1NC(=O)[C@@H]1N[C@@H](CC(C)(C)C)[C@](C#N)(c2ccc(Cl)cc2F)[C@H]1c1cccc(Cl)c1F [idasanutlin]
Summary of the method: as §1

[5] = compound: COc1cc(Nc2ncc3c(n2)-c2ccc(Cl)cc2C(c2c(F)cccc2OC)=NC3)ccc1C(=O)O [alisertib]
Summary of the method: as §1

[6] = compound: COc1cc2nc(-c3cc(F)ccc3O)nc(N[C@@H]3CNC[C@H]3C(C)(C)O)c2cc1OC
Summary of the method: as §1

[7] = compound: COc1cc2ncnc(Nc3ccc(F)c(Cl)c3)c2cc1OCCCN1CCOCC1 [gefitinib]
Summary of the method: as §1

[8] = compound: COc1cccc2cc(-c3nc([C@H]4CC[C@H](C(=O)O)CC4)n4ncnc(N)c34)[nH]c12
Summary of the method: as §1

[9] = compound: CS(=O)(=O)CCNCc1ccc(-c2ccc3ncnc(Nc4ccc(OCc5cccc(F)c5)c(Cl)c4)c3c2)o1 [lapatinib]
Summary of the method: as §1

[10] = compound: CS(=O)(=O)N1CCN(Cc2cc3nc(-c4cccc5[nH]ncc45)nc(N4CCOCC4)c3s2)CC1 [pictilisib]
Summary of the method: as §1

Measured: log2 fold change

BLMH (UniProt Q13867)
inactive: [1] -0.036 | [2] -0.029 | [3] 0.022 | [4] 0.011 | [5] 0.31 | [6] -0.061 | [7] 0.011 | [8] -0.04 | [9] -0.125 | [10] 0.007

BCKDHA (UniProt P12694)
inactive: [1] -0.19 | [2] 0.003 | [3] -0.074 | [4] -0.105 | [5] -0.033 | [6] 0.005 | [7] 0.112 | [8] 0.012 | [9] 0.054 | [10] 0.067

BABAM2 (UniProt Q9NXR7)
inactive: [1] -0.024 | [2] -0.007 | [3] -0.016 | [4] 0.038 | [5] -0.007 | [6] 0.01 | [7] 0.028 | [8] 0.076 | [9] -0.028 | [10] 0.012

B3GAT3 (UniProt O94766)
inactive: [1] 0.074 | [2] 0.03 | [3] 0.023 | [4] -0.069 | [5] -0.087 | [6] 0.003 | [7] 0.014 | [8] -0.016 | [9] 0.009 | [10] -0.01

BABAM1 (UniProt Q9NWV8)
inactive: [1] 0.154 | [2] 0.052 | [3] -0.001 | [4] 0.021 | [5] -0.053 | [6] -0.045 | [7] 0.031 | [8] 0.028 | [9] 0.009 | [10] -0.094

BCL10 (UniProt O95999)
inactive: [1] -0.127 | [2] -0.013 | [3] -0.047 | [4] 0.023 | [5] -0.062 | [6] 0.039 | [7] -0.028 | [8] -0.002 | [9] -0.058 | [10] -0.036

BAG3 (UniProt O95817)
inactive: [1] -0.015 | [2] 0.036 | [3] -0.053 | [4] 0.048 | [5] -0.023 | [6] -0.012 | [7] -0.033 | [8] 0.032 | [9] -0.042 | [10] 0.146

ATR (UniProt Q13535)
active: [1] -0.267
inactive: [2] 0.019 | [3] 0.057 | [4] -0.067 | [5] -0.05 | [6] 0.031 | [7] 0.019 | [8] 0 | [9] 0.039 | [10] 0.112

AURKA (UniProt O14965)
active: [5] 1.36
inactive: [1] 0.021 | [2] 0.009 | [3] -0.021 | [4] -0.095 | [6] 0.048 | [7] -0.03 | [8] 0.01 | [9] 0.025 | [10] 0.055

BICD2 isoform 2 (UniProt Q8TD16)
inactive: [1] 0.177 | [2] -0.031 | [3] 0.031 | [4] -0.003 | [5] -0.027 | [6] 0.019 | [7] 0.033 | [8] -0.036 | [9] -0.01 | [10] -0.006

BACH1 (UniProt O14867)
inactive: [1] -0.003 | [2] 0.043 | [3] 0.006 | [4] 0.031 | [5] -0.064 | [6] -0.01 | [7] -0.043 | [8] 0.036 | [9] 0.018 | [10] 0.042

BCL2L2 isoform 2 (UniProt Q92843)
inactive: [1] 0.018 | [2] 0.115 | [3] -0.024 | [4] 0.164 | [5] -0.1 | [6] 0.073 | [7] -0.145 | [8] -0.022 | [9] 0.002 | [10] 0.029

BRCC3 (UniProt P46736)
inactive: [1] 0.035 | [2] 0.016 | [3] -0.028 | [4] 0.016 | [5] -0.073 | [6] -0.023 | [7] -0.03 | [8] 0.008 | [9] -0.016 | [10] -0.067

BAIAP2 (UniProt Q9UQB8)
inactive: [1] 0.014 | [2] -0.029 | [3] -0.016 | [4] -0.003 | [5] 0.008 | [6] -0.131 | [7] -0.026 | [8] -0.024 | [9] 0.036 | [10] 0

BCL2L1 (UniProt Q07817)
inactive: [1] -0.046 | [2] -0.06 | [3] 0.024 | [4] 0.015 | [5] -0.077 | [6] -0.127 | [7] -0.012 | [8] 0.039 | [9] 0.058 | [10] -0.032

8 neighbouring records out of the list so far, for reference:
BABAM1 (UniProt Q9NWV8)
inactive: [1] 0.154 | [2] 0.052 | [3] -0.001 | [4] 0.021 | [5] -0.053 | [6] -0.045 | [7] 0.031 | [8] 0.028 | [9] 0.009 | [10] -0.094

BCL10 (UniProt O95999)
inactive: [1] -0.127 | [2] -0.013 | [3] -0.047 | [4] 0.023 | [5] -0.062 | [6] 0.039 | [7] -0.028 | [8] -0.002 | [9] -0.058 | [10] -0.036

BAG3 (UniProt O95817)
inactive: [1] -0.015 | [2] 0.036 | [3] -0.053 | [4] 0.048 | [5] -0.023 | [6] -0.012 | [7] -0.033 | [8] 0.032 | [9] -0.042 | [10] 0.146

ATR (UniProt Q13535)
active: [1] -0.267
inactive: [2] 0.019 | [3] 0.057 | [4] -0.067 | [5] -0.05 | [6] 0.031 | [7] 0.019 | [8] 0 | [9] 0.039 | [10] 0.112

AURKA (UniProt O14965)
active: [5] 1.36
inactive: [1] 0.021 | [2] 0.009 | [3] -0.021 | [4] -0.095 | [6] 0.048 | [7] -0.03 | [8] 0.01 | [9] 0.025 | [10] 0.055

BICD2 isoform 2 (UniProt Q8TD16)
inactive: [1] 0.177 | [2] -0.031 | [3] 0.031 | [4] -0.003 | [5] -0.027 | [6] 0.019 | [7] 0.033 | [8] -0.036 | [9] -0.01 | [10] -0.006

BACH1 (UniProt O14867)
inactive: [1] -0.003 | [2] 0.043 | [3] 0.006 | [4] 0.031 | [5] -0.064 | [6] -0.01 | [7] -0.043 | [8] 0.036 | [9] 0.018 | [10] 0.042

BCL2L2 isoform 2 (UniProt Q92843)
inactive: [1] 0.018 | [2] 0.115 | [3] -0.024 | [4] 0.164 | [5] -0.1 | [6] 0.073 | [7] -0.145 | [8] -0.022 | [9] 0.002 | [10] 0.029

Next part.

BOLA3 (UniProt Q53S33)
inactive: [1] -0.082 | [2] -0.025 | [3] -0.048 | [4] -0.019 | [5] 0.017 | [6] 0 | [7] -0.013 | [8] 0.045 | [9] -0.016 | [10] -0.013

BMP2K (UniProt Q9NSY1)
inactive: [1] 0.032 | [2] -0.019 | [3] 0.029 | [4] -0.092 | [5] 0 | [6] 0.055 | [7] 0.024 | [8] 0.111 | [9] 0.01 | [10] 0.102

BLOC1S2 (UniProt Q6QNY1)
inactive: [1] 0.182 | [2] 0.041 | [3] 0.013 | [4] 0.159 | [5] 0.009 | [6] -0.176 | [7] 0.02 | [8] 0.035 | [9] 0.112 | [10] 0.037

BID isoform 2 (UniProt P55957)
inactive: [1] 0.045 | [2] 0.016 | [3] 0.08 | [4] 0.016 | [5] -0.045 | [6] -0.006 | [7] 0 | [8] 0.089 | [9] 0.005 | [10] 0.038

BDH2 (UniProt Q9BUT1)
inactive: [1] 0.022 | [2] -0.007 | [3] 0.098 | [4] -0.039 | [5] 0.071 | [6] 0.065 | [8] -0.001 | [9] 0.012 | [10] 0.007

BRD2 isoform 2 (UniProt P25440)
inactive: [1] -0.174 | [2] -0.11 | [3] -0.361 | [4] 0.072 | [6] 0.214 | [9] 0.005 | [10] 0.016

BRAF (UniProt P15056)
inactive: [1] -0.031 | [2] -0.05 | [3] -0.004 | [4] -0.047 | [5] 0.007 | [6] -0.076 | [7] 0.012 | [8] 0.015 | [10] -0.061

BRIX1 (UniProt Q8TDN6)
inactive: [1] -0.006 | [2] 0.574 | [3] 0.132 | [4] 0.397 | [5] -0.23 | [6] -0.224 | [7] -0.039 | [8] -0.193 | [9] 0.218 | [10] -0.004

B3GALNT2 (UniProt Q8NCR0)
inactive: [1] 0.018 | [2] 0.003 | [5] 0.075 | [6] 0.244 | [8] 0.046 | [9] -0.093 | [10] -0.045

B4GALNT1 (UniProt Q00973)
inactive: [1] 0.023 | [2] 0.092 | [3] 0.081 | [4] 0.093 | [5] -0.063 | [6] -0.045 | [7] 0.119 | [8] 0.112 | [9] 0.097 | [10] -0.045

BANF1 (UniProt O75531)
inactive: [1] -0.094 | [2] 0.044 | [3] 0.021 | [4] -0.039 | [5] 0.022 | [6] -0.079 | [7] 0.007 | [8] 0.031 | [9] -0.162 | [10] 0.137

ATXN2 (UniProt Q99700)
inactive: [1] -0.019 | [2] 0.017 | [3] -0.009 | [4] 0.066 | [5] 0.176 | [6] 0.024 | [7] 0.037 | [8] 0.013 | [9] 0.027 | [10] 0.007
